The source of these data is patent US20080281526A1, “Methods For Molecular Toxicology Modeling” (priority 2004, published 2008).

In the series the test system is rat liver tissue. The note with it: in vivo. How it is done: From the nucleic acid hybridization data, a prediction score is calculated for that sample and compared to a reference score from a toxicity reference database according to the following equation. The sample prediction score=ΣwiR^FC^i. “i” is the index number for each gene in a gene expression profile to be evaluated. “wi” is the PLS weight (or PLS score, see Table 2 for an exemplary list of PLS scores for a general kidney toxicity model) for each gene. “R^FC^i” is the RMA fold-change value for the i^th gene, as determined from a normalized RMA matrix of gene expression data from the sample (described above). The PLS weight multiplied by the RMA fold-change value gives a gene regulation score for each gene, and the regulation scores for all the individual genes are added to give a prediction score for the sample.
To establish a toxicity prediction score cut-off value for a toxicity model, the true-positive and false positive rates for each possible score cut-off value are computed, using the scores from all tox and non-tox samples in the training set. […]
The 100 training samples were used to train the weights in the conversion algorithm. This step is important because it provides for the quantitative aspect of the conversion. […]
Test samples were evaluated using the trained conversion algorithm. […]

In the case of `CCCCc1oc2ccccc2c1C(=O)c1cc(I)c(OCCN(CC)CC)c(I)c1` [Amiodarone, amiodarone], the “number of test samples predicted as toxic out of the total number of samples for that compound” value is 2/3.
